Measured values reported in US20170233495A1.
No constants are given. Whether binding was seen depends on the method and setting.

By UniProt entry, the sequences of proteins in these tests, tags left out. Where a name states a change or a piece, a line headed by the entry shows the natural chain unless it says otherwise.
UniProt P14780: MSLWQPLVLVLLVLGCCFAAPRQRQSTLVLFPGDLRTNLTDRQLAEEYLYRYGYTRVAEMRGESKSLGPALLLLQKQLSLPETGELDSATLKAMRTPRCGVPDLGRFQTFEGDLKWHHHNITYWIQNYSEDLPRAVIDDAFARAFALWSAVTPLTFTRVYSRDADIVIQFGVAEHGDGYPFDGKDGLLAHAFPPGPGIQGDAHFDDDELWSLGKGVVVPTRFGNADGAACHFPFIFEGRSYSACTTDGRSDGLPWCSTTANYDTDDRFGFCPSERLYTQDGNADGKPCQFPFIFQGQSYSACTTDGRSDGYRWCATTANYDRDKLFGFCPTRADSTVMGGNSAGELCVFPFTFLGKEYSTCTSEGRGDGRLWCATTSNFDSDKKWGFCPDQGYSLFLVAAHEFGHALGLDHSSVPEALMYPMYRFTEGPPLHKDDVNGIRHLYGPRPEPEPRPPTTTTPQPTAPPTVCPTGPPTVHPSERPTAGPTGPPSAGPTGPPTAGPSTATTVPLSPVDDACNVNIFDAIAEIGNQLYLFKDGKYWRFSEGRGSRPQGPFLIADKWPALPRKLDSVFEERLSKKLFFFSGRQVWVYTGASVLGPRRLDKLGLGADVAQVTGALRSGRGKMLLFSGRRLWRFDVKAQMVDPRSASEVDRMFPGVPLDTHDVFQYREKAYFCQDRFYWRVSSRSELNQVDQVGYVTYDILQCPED

How the values were obtained:
[1] = biological target: recombinant human proMMP9 (full length, latent form) (human) (UniProt P14780); assay: condition: less then 1% binding at 150 nM; KD estimated to be greater than 15 µM; SPR (BIAcore), antibody captured by anti-human Fc, pro-MMP9 titrated 4.7-150 nM; SPR (BIAcore), captured antibody, soluble pro-MMP9 titrated 4.7-150 nM; minimal signal
[2] = biological target: recombinant human proMMP9 (full length, latent form) (human) (UniProt P14780); assay: SPR (BIAcore), antibody captured by anti-human Fc, pro-MMP9 titrated 4.7 to 150 nM in 2-fold steps

B1: F20-VH-GL1-V4-V9/B08-VL-GL6c (antibody, human IgG4 S228P, V domains shown)
VH: EVQLVESGGGLVQPGRSLRLSCAASGFTFNDYPMHWVRQAPGKGLEWVSGISSRSGSVGYAESVKGRFTISRDNAKNSLYLQMNSLRAEDTALYYCARDKIYYGSGSYDFYYYYGMDVWGQGTTVTVSS
VL: QSALTQPASVSGSPGQSITISCTGTSNDVGAYNRVSWYQQHPGKAPKLMIYGVSNRPSGVSNRFSGSKSGNTASLTISGLQAEDEADFYCTSYSSSTTSYVVFGGGTKVTVL
B1 was tested, and the binding [1] was “no binding” and the binding [2] was “no binding (tested: 150 nM)”.
